37 targets from the supplement of paper PMC11006884 can be followed below.

Sequences of proteins named here, by UniProt entry; tags and fusion partners are left off. A change or cut given only in a name is not applied to a line headed by its entry.
UniProt P53384: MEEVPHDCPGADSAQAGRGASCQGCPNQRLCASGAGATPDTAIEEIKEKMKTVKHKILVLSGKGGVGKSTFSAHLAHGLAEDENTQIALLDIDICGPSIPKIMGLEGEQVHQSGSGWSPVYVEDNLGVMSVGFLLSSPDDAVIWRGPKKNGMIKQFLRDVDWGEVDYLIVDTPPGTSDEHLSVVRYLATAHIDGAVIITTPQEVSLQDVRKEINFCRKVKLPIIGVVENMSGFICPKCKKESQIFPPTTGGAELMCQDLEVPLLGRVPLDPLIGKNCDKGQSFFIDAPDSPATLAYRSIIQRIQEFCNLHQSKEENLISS
UniProt P53041: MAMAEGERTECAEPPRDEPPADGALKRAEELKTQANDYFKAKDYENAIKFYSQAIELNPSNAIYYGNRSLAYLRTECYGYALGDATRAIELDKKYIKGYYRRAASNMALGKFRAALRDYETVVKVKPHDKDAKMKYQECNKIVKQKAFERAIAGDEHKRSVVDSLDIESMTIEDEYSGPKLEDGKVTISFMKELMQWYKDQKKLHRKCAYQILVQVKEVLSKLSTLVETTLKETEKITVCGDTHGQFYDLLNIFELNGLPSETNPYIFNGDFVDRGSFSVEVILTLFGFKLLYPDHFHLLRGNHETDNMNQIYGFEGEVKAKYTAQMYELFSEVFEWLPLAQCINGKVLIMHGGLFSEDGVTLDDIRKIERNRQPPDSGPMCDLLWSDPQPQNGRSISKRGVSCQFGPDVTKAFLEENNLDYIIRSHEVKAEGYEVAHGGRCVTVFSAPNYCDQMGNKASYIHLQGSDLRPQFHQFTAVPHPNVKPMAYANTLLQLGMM
UniProt P56192: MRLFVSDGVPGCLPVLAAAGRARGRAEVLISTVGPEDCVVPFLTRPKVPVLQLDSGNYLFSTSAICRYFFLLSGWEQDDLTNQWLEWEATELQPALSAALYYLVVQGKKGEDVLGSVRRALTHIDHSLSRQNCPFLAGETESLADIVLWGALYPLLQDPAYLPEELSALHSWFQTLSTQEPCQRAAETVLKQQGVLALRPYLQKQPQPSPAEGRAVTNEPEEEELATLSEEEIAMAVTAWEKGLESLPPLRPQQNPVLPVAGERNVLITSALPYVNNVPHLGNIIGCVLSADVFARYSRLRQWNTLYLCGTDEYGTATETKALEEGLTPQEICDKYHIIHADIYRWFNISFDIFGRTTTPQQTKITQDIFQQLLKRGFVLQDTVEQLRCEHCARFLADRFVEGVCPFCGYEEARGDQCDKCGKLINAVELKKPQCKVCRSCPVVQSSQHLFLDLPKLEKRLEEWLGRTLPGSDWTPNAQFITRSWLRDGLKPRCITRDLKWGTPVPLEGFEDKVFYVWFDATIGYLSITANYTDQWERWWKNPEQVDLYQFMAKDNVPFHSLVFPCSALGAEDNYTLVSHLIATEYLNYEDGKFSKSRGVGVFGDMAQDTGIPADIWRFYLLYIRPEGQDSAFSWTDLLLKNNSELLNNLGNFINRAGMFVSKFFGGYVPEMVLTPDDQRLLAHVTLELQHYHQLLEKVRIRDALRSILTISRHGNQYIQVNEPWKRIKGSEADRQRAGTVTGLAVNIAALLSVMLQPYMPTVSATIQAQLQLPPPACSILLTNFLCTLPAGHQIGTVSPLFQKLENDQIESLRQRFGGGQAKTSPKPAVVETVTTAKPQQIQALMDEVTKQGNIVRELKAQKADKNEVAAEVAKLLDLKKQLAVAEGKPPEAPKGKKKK
UniProt P52789: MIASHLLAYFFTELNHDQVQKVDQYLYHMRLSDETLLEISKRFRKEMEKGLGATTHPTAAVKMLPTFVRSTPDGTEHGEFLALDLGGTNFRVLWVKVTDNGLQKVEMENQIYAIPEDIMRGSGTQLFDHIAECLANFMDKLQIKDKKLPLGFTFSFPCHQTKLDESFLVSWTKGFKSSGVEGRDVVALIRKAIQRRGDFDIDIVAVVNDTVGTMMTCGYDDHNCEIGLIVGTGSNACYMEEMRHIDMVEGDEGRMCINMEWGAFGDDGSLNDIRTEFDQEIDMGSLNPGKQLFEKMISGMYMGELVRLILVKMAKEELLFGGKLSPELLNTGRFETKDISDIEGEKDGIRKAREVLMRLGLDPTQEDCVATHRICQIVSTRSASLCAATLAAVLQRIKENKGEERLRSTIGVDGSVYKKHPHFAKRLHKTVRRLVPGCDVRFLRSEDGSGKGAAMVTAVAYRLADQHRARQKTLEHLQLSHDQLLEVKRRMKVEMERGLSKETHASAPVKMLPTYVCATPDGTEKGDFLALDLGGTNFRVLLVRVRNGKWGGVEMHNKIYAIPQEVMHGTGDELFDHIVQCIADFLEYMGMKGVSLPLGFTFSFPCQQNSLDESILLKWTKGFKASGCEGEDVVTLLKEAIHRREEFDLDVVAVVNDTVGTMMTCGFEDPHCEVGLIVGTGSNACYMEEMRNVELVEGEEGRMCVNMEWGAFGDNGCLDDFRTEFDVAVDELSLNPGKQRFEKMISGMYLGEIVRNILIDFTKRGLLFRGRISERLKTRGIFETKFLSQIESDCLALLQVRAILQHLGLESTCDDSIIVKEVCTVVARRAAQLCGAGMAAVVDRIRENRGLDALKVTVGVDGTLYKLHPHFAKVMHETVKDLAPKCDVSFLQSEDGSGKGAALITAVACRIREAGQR
UniProt P55795: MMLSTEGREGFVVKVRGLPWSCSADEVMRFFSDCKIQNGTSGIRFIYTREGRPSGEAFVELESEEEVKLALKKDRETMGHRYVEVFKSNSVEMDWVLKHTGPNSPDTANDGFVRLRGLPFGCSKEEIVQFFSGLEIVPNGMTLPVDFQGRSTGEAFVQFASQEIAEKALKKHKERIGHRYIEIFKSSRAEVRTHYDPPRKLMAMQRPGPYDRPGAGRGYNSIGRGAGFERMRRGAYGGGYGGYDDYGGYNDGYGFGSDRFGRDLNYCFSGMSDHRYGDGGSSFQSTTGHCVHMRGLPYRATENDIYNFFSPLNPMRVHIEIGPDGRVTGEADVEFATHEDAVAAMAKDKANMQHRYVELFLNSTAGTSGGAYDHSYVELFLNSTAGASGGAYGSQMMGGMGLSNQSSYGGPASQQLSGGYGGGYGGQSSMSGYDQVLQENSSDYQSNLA
UniProt P54278: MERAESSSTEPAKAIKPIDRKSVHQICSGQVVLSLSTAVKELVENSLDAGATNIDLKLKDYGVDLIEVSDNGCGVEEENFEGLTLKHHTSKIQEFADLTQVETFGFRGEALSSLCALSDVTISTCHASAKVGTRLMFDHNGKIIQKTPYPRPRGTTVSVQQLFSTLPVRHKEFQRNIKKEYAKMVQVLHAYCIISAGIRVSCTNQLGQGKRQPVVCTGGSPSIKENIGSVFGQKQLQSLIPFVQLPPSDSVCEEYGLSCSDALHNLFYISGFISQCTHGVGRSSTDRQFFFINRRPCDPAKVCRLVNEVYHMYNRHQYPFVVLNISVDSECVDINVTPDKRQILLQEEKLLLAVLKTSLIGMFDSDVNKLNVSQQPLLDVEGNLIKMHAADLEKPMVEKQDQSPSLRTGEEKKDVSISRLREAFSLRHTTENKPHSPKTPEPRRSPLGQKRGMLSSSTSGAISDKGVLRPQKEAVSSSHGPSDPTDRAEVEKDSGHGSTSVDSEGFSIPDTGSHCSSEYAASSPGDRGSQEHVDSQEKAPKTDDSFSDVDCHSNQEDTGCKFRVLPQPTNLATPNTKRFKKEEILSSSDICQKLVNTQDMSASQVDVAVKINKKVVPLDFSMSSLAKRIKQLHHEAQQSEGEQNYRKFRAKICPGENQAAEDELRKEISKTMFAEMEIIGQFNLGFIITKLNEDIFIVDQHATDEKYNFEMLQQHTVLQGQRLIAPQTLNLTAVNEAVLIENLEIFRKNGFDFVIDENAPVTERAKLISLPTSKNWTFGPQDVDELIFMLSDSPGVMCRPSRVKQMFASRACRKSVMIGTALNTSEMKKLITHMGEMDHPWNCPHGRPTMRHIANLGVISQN
UniProt P54198, whole entry, looked up: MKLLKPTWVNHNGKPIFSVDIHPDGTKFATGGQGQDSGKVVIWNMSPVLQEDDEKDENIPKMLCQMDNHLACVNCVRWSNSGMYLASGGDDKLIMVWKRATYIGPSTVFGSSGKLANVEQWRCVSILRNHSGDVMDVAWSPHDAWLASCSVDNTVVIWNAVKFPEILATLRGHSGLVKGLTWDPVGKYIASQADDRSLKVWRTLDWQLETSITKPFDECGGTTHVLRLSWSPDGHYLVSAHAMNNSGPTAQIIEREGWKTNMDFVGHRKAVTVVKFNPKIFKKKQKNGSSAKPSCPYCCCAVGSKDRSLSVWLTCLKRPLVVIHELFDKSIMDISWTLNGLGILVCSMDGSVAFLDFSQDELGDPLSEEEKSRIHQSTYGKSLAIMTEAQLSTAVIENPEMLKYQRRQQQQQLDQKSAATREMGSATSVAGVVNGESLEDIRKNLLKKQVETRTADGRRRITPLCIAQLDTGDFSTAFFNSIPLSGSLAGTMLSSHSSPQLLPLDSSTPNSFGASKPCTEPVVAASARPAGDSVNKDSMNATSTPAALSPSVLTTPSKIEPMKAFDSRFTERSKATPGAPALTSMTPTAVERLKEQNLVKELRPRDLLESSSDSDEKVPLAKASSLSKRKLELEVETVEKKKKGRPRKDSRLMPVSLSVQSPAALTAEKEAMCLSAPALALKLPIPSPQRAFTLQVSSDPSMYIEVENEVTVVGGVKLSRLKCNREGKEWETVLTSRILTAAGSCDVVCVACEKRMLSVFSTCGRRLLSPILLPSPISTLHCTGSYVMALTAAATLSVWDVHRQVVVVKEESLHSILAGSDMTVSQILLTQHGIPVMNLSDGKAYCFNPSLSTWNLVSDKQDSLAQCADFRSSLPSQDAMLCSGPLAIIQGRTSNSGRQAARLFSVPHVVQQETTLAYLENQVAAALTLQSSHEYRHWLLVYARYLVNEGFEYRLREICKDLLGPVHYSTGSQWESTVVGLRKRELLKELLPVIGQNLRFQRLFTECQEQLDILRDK
UniProt P53992: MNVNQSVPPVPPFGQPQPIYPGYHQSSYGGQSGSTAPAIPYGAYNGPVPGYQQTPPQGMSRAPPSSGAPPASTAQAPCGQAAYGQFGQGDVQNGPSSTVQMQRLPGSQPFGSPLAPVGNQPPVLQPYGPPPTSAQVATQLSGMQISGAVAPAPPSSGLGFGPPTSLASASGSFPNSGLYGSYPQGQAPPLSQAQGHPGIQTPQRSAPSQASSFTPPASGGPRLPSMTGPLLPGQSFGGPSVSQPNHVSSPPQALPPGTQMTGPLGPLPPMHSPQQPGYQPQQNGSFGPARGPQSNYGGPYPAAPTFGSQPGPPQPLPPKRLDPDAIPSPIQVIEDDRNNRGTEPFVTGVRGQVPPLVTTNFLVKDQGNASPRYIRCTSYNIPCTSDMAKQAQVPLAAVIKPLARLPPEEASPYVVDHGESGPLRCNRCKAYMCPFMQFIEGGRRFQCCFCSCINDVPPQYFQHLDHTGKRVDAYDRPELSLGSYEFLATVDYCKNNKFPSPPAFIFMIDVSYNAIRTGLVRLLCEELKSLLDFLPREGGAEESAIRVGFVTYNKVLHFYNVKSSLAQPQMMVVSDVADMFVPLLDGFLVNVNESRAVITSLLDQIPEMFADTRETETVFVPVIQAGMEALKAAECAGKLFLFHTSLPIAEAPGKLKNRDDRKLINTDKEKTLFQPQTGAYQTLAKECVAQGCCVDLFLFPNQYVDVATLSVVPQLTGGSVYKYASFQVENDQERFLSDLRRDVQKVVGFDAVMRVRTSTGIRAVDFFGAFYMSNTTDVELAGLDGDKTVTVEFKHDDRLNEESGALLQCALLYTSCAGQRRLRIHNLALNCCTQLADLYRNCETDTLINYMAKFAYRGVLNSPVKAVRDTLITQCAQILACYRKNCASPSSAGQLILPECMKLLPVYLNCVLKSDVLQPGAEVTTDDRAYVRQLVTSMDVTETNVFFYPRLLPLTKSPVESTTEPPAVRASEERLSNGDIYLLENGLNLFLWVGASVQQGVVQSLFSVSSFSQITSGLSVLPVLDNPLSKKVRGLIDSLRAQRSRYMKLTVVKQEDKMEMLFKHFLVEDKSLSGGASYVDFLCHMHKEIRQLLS
UniProt P52294, whole entry, looked up: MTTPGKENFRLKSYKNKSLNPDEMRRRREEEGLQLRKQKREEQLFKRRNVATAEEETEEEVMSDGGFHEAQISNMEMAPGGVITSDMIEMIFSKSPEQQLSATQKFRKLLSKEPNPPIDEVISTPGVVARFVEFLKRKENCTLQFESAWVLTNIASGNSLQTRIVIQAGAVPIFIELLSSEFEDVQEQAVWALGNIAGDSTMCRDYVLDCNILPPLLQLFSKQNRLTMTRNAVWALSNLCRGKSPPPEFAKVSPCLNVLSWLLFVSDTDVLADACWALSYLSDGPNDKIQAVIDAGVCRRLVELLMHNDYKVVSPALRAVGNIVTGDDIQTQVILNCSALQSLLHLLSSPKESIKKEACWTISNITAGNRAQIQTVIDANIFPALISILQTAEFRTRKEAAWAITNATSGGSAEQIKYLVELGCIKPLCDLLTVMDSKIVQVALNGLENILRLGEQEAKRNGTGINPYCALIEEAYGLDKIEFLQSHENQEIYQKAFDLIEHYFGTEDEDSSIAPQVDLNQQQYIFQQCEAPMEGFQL

Shown are results outside the selection of targets with a hit, which stands elsewhere. The data scatter; read single values as rough. The list shows a part of the results, in another mix than the full data.

Compound in this assay: COC(=O)/C=C/c1ccccc1 [methyl cinnamate]
As to the kind of experiment: log2 ratio of iodoacetamide-alkyne labeling of the cysteine site, DMSO over compound (competition); higher = stronger covalent engagement of the cysteine by the compound, active = 1 or more. The settings on record: 500 µM; treatment time 1 h; system: HEK293T cell lysate. The method in brief: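 Three replicates, each with duplicate channels, were prepared from HEK293T lysate (2 mg/mL) treated with vehicle or electrophile at 500 µM for 1 h at ambient temperature. Iodoacetamide alkyne was then applied for 1 h, and samples were clicked to sCIP-TMT reagents, pooled, trypsin-digested overnight at 37 °C, enriched on streptavidin, acid-eluted and analysed on Orbitrap Eclipse LC-MS/MS with FAIMS, with FragPipe quantification. The log2 competition ratio per cysteine is the mean control-channel divided by the mean compound-channel reporter intensity. Cysteines quantified in only one replicate were left out.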
In the case of UniProt P55196_C1684, the “log2 ratio of iodoacetamide-alkyne labeling” value (“log2 ratio” below) was inactive: 0.0329.
As to UniProt P60891_C91, the “log2 ratio” value was inactive: -0.116.
With UniProt P62241_C72, the “log2 ratio” value is inactive: 0.0344.
Take UniProt P60660_C32: the “log2 ratio” value was inactive: 0.0554.
On to CSE1L C842 (UniProt P55060), for which the “log2 ratio” value was inactive: 0.29.
As for NUBP1 C8 (UniProt P53384), the “log2 ratio” value was inactive: 0.318.
Take PPP5C C404 (UniProt P53041): the “log2 ratio” value is inactive: 0.0703.
In the case of MARS C441 (UniProt P56192), the “log2 ratio” value was inactive: 0.0368.
With MSH6 C1165 (UniProt P52701), the “log2 ratio” value is inactive: 0.0384.
Consider UniProt P60866_C36, for which the “log2 ratio” value is inactive: 0.102.
Regarding UniProt P55196_C1764, the “log2 ratio” value is inactive: 0.569.
Turning to AK2 C42 (UniProt P54819), the “log2 ratio” value is inactive: 0.105.
HK2 C794 (UniProt P52789): the “log2 ratio” value is inactive: 0.184.
On to UniProt P61221_C201, for which the “log2 ratio” value is inactive: 0.059.
With MSH6 C1158 (UniProt P52701), the “log2 ratio” value is inactive: 0.0384.
Consider BLM C607 (UniProt P54132), for which the “log2 ratio” value was inactive: 0.144.
Regarding UniProt P62241_C100, the “log2 ratio” value was inactive: -0.0435.
The result for HNRNPH2 C22 (UniProt P55795) reads inactive: -0.0741; that for UniProt P60891_C165, inactive: 0.284.
To UniProt P61978_C205 belongs inactive: 0.15; to CSE1L C387 (UniProt P55060), inactive: 0.159.
As to THOP1 C682 (UniProt P52888), the “log2 ratio” value was inactive: 0.378.
Turning to UniProt P55769_C93, the “log2 ratio” value was inactive: 0.229.
The result for ADK C353 (UniProt P55263) reads inactive: 0.121.
On to HNRNPF C290 (UniProt P52597), for which the “log2 ratio” value was inactive: 0.169.
For the target BLM C698 (UniProt P54132), the “log2 ratio” value was inactive: 0.139.
To UniProt P61978_C184 belongs inactive: 0.0704; to PEX3 C283 (UniProt P56589), inactive: 0.0579.
As to PSMD4 C87 (UniProt P55036), the “log2 ratio” value is inactive: 0.182.
As for PMS2 C216 (UniProt P54278), the “log2 ratio” value was inactive: 0.267.
The result for RARS C369 (UniProt P54136) reads inactive: 0.0319.
To HIRA C882 (UniProt P54198) belongs inactive: 0.0603; to SEC24C C433 (UniProt P53992), inactive: 0.443; to KPNA1 C469 (UniProt P52294), inactive: 0.158.
In the case of HADHB C458 (UniProt P55084), the “log2 ratio” value is inactive: 0.0535.
VAMP7 C21 (UniProt P51809): the “log2 ratio” value was inactive: 0.431.
In the case of GEMIN4 C210 (UniProt P57678), the “log2 ratio” value was inactive: -0.000844.
